From paper PMC4945878
The exact form of at least one protein or probe is not confirmed. For part of these data: At least one verdict was read from the data and is not stated in words by the source.

Sequences of proteins named here, by UniProt entry; tags and fusion partners are left off. Residues count along the entry.
UniProt Q9HAW4, 1-350: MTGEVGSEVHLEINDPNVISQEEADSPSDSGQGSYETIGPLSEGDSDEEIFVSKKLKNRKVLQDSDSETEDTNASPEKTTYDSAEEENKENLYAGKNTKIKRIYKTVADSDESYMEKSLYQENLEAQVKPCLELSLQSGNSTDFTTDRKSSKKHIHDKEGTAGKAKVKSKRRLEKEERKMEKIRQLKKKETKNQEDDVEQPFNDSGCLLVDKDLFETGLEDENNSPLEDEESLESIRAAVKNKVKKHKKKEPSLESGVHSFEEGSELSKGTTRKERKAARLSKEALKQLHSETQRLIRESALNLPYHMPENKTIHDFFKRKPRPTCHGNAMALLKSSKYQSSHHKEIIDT

Tests used:
Claspin #2 (human) = Claspin #2 (human) (UniProt Q9HAW4); assay: EMSA; conditions: aa1-350 can bind DNA with high affinity; 10 mM Tris-HCl pH 7.5, 40 ug/ml BSA, 1 mM DTT; 0.5 mM for filter binding), 20 mM K-glutamate, 8% glycerol, 30 C, 1 h; recombinant protein; residues 1-350; protein details: Flag (C-term); label: 32P end label on 32mer-dT32 strand
[1] = target: Claspin wild-type full-length (human) (UniProt Q9HAW4); assay: filter binding; conditions: 20 mM K-glutamate, 8% glycerol, 30 C, 1 h, recombinant protein, residues 1-1339, protein details: Flag (C-term), label: 32P end label on 32mer-dT32 strand

Sequence: AACGTCGTGACTGGGCACTTGATCGGCCAACCTTTTTTTTTTTTTTTTTTTTTTTTTTTTTTTT / TTTTTTTTTTTTTTTTTTTTTTTTTTTTTTTTGGTTGGCCGATCAAGTGCCCAGTCACGACGTT [Y-fork DNA]
- binding result (Claspin #2 (human)): binds
- binding signal (% of binding without salt wash) ([1]; 150 mM KCl wash (legend says NaCl), 2 pmol protein; 10 mM Tris-HCl pH 7.5, 40 ug/ml BSA, 1 mM DTT; 0.5 mM for filter binding)): 20
- binding signal (% of binding without salt wash) ([1]; 250 mM KCl wash (legend says NaCl), 2 pmol protein; 10 mM Tris-HCl pH 7.5, 40 ug/ml BSA, 1 mM DTT; 0.5 mM for filter binding)): < 10
